The shares of active, inactive and inconclusive entries below differ from those in the screen. Where the call is inconclusive, the potency comes from a doubtful curve fit. Activity calls are given as the source filed them. The call rests on the fitted dose curve; in most records, active means well fitted inhibition curve with a large enough effect; inconclusive means small, poorly fitted or top-dose-only effect; inactive means flat fitted curve, though single readings scatter.
Assay: qHTS Assay for Compounds Blocking the Interaction Between CBF-beta and RUNX1 for the Treatment of Acute Myeloid Leukemia: ME-1 cellular proliferation
Details: ME-1 cell proliferation, ATP luminescence, 48 h; series mostly up to 25.6 µM; activity change, negative = inhibition: at the top concentration
Outline: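 ME-1 cells (CBF-beta-dependent) seeded at 250 cells/well in DMEM with 10% FBS onto plates holding 23 nL pinned compound or DMSO; proliferation-slowing assessed.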
With `Nc1c(C(=O)NCC2CCCO2)sc2nc3c(c(-c4ccco4)c12)CC/C3=C\c1ccco1` (centres undefined) the Potency was inconclusive: 35.5 µM [inhibitor, partial curve, poor fit].
In the case of `Cc1ccc(Cl)cc1NC(=S)N(CCN(C)C)C(C)c1ccccn1` (centres undefined), the “activity change, negative = inhibition” value is reported as inactive: -6.53%.
With `CC1=NN(c2ccccc2)C(=O)/C1=C/C=C/c1ccc(N(C)C)cc1` the Potency was inconclusive: 10 µM [inhibitor, full curve, poor fit].
With `O=c1c(O)cccc2cc(O)c(O)c(O)c12` the Potency was inconclusive: 35.5 µM [inhibitor, partial curve, poor fit].

Reference: PubChem BioAssay AID504370 (National Center for Advancing Translational Sciences (NCATS), 2011)
